Experimental data: the supplement of paper PMC10849652
The list shows a part of the results.

The chains behind the UniProt entries cited, without tags or fusion partners. Where a name states a change or a piece, a line headed by the entry shows the natural chain unless it says otherwise.
UniProt Q9H0L4: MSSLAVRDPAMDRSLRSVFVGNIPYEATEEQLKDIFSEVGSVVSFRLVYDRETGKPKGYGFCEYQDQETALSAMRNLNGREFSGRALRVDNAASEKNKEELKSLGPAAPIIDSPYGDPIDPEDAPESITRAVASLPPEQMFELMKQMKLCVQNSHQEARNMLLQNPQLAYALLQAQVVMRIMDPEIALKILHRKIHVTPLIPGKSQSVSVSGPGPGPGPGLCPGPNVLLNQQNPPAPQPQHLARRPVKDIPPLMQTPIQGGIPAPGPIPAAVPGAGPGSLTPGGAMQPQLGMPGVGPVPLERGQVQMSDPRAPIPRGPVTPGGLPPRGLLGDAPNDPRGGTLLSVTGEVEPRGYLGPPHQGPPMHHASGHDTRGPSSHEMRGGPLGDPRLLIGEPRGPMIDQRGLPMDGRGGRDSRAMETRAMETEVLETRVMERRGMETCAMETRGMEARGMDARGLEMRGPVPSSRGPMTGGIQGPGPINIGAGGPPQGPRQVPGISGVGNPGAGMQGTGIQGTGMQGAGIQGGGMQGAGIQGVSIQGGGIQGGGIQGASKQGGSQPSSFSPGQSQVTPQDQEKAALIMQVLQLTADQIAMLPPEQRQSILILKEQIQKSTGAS
UniProt Q13616, whole entry, looked up: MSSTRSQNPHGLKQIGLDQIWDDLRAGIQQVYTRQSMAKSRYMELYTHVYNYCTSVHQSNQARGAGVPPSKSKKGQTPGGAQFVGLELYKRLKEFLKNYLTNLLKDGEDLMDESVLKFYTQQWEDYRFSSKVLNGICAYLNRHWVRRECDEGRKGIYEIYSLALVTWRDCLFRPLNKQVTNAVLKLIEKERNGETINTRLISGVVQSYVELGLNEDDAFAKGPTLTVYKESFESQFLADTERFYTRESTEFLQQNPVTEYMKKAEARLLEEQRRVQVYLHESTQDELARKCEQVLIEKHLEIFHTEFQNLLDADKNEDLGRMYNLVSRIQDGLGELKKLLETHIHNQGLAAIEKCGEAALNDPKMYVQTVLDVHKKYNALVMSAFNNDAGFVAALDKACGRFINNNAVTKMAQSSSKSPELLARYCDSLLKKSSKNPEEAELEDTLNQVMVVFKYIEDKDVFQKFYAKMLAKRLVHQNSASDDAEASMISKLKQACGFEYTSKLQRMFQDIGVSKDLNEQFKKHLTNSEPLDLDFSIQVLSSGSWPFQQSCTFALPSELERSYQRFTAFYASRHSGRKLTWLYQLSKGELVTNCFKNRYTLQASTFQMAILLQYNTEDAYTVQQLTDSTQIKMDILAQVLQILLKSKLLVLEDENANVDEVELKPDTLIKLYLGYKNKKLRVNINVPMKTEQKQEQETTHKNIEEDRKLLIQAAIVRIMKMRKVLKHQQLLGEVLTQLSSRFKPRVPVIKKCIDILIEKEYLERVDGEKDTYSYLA
UniProt Q9UJW0, whole entry, looked up: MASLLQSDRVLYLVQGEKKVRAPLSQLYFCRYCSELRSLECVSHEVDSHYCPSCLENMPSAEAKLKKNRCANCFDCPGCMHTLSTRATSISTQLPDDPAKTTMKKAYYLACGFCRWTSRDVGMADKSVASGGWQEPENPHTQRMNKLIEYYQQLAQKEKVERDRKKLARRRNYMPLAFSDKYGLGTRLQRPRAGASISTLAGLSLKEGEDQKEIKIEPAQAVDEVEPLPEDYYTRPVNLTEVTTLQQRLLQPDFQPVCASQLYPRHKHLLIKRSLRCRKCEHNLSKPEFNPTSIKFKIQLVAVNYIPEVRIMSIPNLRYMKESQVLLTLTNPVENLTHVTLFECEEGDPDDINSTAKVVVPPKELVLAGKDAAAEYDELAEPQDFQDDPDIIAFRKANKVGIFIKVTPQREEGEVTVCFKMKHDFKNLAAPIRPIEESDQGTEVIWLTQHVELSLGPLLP
UniProt Q96C86: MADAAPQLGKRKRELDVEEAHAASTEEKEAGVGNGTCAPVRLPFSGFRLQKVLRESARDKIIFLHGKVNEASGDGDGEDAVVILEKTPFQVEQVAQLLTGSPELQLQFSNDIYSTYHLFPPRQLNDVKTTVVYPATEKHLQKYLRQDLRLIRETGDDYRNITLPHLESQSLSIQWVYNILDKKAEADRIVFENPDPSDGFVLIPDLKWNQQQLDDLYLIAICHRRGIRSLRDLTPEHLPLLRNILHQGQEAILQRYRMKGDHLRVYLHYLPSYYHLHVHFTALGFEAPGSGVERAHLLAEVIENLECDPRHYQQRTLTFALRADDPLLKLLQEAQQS
UniProt O75935, whole entry, looked up: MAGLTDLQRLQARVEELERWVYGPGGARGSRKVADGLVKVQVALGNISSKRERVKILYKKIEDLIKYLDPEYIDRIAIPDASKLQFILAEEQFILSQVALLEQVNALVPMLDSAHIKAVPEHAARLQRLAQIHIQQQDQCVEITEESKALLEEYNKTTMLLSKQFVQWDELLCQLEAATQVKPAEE
UniProt Q96C57: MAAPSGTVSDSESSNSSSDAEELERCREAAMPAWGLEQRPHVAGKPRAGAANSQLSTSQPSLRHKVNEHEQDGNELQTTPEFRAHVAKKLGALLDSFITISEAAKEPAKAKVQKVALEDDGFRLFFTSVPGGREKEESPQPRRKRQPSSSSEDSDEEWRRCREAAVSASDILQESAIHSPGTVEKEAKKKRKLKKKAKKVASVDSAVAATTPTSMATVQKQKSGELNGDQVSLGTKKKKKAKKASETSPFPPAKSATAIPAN
UniProt Q96EP5: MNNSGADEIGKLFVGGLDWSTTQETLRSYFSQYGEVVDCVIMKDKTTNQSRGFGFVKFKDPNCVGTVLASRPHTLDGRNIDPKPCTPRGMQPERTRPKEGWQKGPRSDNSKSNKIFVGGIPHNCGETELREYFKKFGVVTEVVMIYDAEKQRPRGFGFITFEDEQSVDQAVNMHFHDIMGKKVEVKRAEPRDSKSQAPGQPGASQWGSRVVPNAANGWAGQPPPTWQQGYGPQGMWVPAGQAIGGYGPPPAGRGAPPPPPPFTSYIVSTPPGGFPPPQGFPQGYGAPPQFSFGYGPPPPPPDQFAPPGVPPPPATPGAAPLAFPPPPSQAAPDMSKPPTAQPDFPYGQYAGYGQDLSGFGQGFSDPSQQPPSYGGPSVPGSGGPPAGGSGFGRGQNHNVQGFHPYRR
UniProt Q13618, whole entry, looked up: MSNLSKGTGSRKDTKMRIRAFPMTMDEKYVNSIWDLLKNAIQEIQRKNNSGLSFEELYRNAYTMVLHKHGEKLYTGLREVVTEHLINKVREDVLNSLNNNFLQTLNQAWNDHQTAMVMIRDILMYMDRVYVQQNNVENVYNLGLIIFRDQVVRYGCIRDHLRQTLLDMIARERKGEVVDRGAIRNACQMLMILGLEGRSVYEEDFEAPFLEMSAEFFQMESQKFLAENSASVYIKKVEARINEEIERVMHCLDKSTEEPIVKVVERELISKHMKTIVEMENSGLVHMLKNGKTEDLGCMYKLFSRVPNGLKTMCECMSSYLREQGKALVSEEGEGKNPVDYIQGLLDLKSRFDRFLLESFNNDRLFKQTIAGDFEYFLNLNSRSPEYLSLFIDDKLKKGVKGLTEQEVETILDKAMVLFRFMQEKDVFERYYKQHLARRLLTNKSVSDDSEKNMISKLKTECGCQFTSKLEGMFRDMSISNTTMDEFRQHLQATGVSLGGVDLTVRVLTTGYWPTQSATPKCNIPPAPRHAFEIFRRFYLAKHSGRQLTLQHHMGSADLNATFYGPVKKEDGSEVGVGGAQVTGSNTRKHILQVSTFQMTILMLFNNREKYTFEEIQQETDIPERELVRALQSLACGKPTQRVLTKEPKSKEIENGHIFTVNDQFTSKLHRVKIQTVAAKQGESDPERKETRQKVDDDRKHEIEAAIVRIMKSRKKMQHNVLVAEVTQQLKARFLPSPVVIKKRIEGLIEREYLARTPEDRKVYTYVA
UniProt P32321: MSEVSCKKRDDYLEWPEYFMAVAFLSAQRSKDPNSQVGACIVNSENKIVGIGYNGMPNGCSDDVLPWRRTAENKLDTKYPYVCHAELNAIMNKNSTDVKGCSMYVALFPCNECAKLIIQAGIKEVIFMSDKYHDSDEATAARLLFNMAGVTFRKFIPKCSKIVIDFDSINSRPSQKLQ
UniProt Q9NTM9: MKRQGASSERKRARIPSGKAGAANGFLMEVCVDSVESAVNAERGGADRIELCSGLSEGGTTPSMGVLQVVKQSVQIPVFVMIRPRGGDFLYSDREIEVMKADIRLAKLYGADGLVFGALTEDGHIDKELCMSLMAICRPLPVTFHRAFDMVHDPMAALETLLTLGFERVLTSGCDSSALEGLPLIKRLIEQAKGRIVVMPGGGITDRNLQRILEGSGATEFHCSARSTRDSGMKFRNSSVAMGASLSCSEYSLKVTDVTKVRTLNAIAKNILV
UniProt Q13561, whole entry, looked up: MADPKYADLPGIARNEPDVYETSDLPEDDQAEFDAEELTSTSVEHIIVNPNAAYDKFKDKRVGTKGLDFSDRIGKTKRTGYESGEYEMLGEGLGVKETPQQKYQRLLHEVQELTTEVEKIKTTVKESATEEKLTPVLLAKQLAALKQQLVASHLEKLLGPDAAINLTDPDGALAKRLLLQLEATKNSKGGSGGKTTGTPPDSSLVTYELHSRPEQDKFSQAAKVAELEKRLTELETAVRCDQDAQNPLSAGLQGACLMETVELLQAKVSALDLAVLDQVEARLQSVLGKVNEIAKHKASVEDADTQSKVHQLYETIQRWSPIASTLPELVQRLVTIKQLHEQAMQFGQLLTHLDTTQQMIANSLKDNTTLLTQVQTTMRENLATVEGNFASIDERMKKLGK
UniProt O00399, whole entry, looked up: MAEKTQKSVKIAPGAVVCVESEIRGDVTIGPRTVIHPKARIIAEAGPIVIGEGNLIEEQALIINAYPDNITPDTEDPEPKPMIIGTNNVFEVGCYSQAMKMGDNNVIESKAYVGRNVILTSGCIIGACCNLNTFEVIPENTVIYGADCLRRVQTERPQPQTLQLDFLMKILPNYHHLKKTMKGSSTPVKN
UniProt Q8N465: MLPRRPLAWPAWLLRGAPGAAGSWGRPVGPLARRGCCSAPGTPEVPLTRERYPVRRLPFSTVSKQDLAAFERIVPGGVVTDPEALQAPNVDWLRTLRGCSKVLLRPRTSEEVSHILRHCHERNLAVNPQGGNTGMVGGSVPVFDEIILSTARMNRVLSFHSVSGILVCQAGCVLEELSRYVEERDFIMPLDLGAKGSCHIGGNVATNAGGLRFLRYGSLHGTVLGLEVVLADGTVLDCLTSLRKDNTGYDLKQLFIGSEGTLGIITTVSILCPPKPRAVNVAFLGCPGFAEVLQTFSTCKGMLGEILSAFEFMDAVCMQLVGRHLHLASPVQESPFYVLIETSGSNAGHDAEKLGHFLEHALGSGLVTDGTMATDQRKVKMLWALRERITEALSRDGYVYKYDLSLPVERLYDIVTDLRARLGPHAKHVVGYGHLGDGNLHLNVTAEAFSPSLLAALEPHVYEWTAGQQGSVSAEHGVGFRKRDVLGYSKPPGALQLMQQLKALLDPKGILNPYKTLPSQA
UniProt Q7L1T6: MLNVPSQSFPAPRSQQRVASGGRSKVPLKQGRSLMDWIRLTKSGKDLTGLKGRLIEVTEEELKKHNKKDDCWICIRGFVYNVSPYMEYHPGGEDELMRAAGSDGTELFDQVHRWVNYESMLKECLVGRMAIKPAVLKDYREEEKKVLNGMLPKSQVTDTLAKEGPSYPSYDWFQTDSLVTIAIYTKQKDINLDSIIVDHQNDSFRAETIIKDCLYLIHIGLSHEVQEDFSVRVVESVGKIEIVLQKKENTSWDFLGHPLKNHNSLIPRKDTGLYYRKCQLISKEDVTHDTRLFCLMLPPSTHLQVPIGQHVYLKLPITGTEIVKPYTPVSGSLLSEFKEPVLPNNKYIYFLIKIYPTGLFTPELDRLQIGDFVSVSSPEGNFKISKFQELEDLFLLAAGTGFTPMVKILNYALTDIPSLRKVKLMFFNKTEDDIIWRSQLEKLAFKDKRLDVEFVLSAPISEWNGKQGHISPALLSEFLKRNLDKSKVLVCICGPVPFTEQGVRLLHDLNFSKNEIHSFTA
UniProt P0DMU9: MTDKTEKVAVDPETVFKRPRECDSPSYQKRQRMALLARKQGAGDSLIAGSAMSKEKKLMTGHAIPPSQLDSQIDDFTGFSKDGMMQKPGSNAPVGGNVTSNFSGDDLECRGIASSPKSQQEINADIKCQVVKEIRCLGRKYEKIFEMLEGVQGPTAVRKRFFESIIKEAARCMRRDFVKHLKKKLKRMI

Tests used:
Assay in all cases: log2 fold change, soluble protein after heating vs DMSO (PISA); higher = thermal stabilisation; K562 cells, 10 uM, 30 min; active = over 0.2 and 3.5 SD of the protein, either way, in both replicates (recomputed)
[1] = compound: CN1CCN(CCOc2cc(OC3CCOCC3)c3c(Nc4c(Cl)ccc5c4OCO5)ncnc3c2)CC1 [saracatinib]
Outline: (§1)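 Values are thermal stability changes relative to control samples and are taken from duplicates. They are stated as log2 fold changes. Before quantification by TMTpro 16plex LC-MS/MS with equalised channel sums, K562 cells at 2×10^6 cells/mL were treated with 10 μM compound for 30 min, heated in aliquots for 3 min across 48°C-58°C, pooled, extracted in PBS with 0.5% NP-40 at 4°C, and centrifuged at 21,000xg for 90 min to give the soluble supernatant.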

[2] = compound: CN1CCN(c2nc(C3=C(c4c[nH]c5ccccc45)C(=O)NC3=O)c3ccccc3n2)CC1 [sotrastaurin]
Outline: as §1

[3] = compound: CN1CC[C@H](c2c(O)cc(O)c3c(=O)cc(-c4ccccc4Cl)oc23)[C@H](O)C1 [alvocidib]
Outline: as §1

[4] = compound: CN1CCc2c(c3ccccc3n2Cc2ccc(C(=O)NO)cc2)C1 [Tubastatin A]
Outline: as §1

[5] = compound: CNC(=O)C1=CC=CC=C1NC2=NC(=NC=C2Cl)NC3=C(C=C(C=C3)N4CCOCC4)OC
Outline: as §1

[6] = compound: CNC(=O)c1ccc(Nc2ncc(C(F)(F)F)c(NCc3nccnc3N(C)S(C)(=O)=O)n2)cc1 [defactinib]
Outline: as §1

[7] = compound: CNCc1ccc(-c2[nH]c3cc(F)cc4c3c2CCNC4=O)cc1 [rucaparib]
Outline: as §1

[8] = compound: CNc1nc(-c2ccc3c(N)n[nH]c3c2)cc(N2C[C@@H](C(=O)NC3CCCCC3)CC[C@H]2C)n1
Outline: as §1

[9] = compound: COC(=O)N[C@@H](C)CNc1nccc(-c2cn(C(C)C)nc2-c2cc(Cl)cc(NS(C)(=O)=O)c2F)n1 [encorafenib]
Outline: as §1

[10] = compound: COC(=O)[C@H](CCSC)NC(=O)C1=C(C=C(C=C1)NC[C@H](CS)N)C2=CC=CC=C2
Outline: as §1

[11] = compound: COC1=CC=C(C=C1)CN2C=CC3=C2C=C(C=C3)C(=O)NO
Outline: as §1

[12] = compound: CON(C)C(=O)N1N=C(c2cc(F)ccc2F)S[C@@]1(CCCN)c1ccccc1 [filanesib]
Outline: as §1

[13] = compound: CO[C@H]1C[C@@H]2CC[C@@H](C)[C@@](O)(O2)C(=O)C(=O)N2CCCC[C@H]2C(=O)O[C@H]([C@H](C)C[C@@H]2CC[C@H](n3cnnn3)[C@H](OC)C2)CC(=O)[C@H](C)/C=C(\C)[C@@H](O)[C@@H](OC)C(=O)[C@H](C)C[C@H](C)/C=C/C=C/C=C/1C [zotarolimus]
Outline: as §1

[14] = compound: COc1cc(C(=O)O)ccc1NC(=O)[C@@H]1N[C@@H](CC(C)(C)C)[C@](C#N)(c2ccc(Cl)cc2F)[C@H]1c1cccc(Cl)c1F [idasanutlin]
Outline: as §1

[15] = compound: COc1cc(Nc2ncc3c(n2)-c2ccc(Cl)cc2C(c2c(F)cccc2OC)=NC3)ccc1C(=O)O [alisertib]
Outline: as §1

[16] = compound: COc1cc2nc(-c3cc(F)ccc3O)nc(N[C@@H]3CNC[C@H]3C(C)(C)O)c2cc1OC
Outline: as §1

[17] = compound: COc1cc2ncnc(Nc3ccc(F)c(Cl)c3)c2cc1OCCCN1CCOCC1 [gefitinib]
Outline: as §1

[18] = compound: COc1cccc2cc(-c3nc([C@H]4CC[C@H](C(=O)O)CC4)n4ncnc(N)c34)[nH]c12
Outline: as §1

[19] = compound: CS(=O)(=O)CCNCc1ccc(-c2ccc3ncnc(Nc4ccc(OCc5cccc(F)c5)c(Cl)c4)c3c2)o1 [lapatinib]
Outline: as §1

[20] = compound: CS(=O)(=O)N1CCN(Cc2cc3nc(-c4cccc5[nH]ncc45)nc(N4CCOCC4)c3s2)CC1 [pictilisib]
Outline: as §1

Measured: log2 fold change

CSTF2T (UniProt Q9H0L4)
inactive: [1] -0.005 | [2] 0.014 | [3] 0.058 | [4] -0.018 | [5] 0.011 | [6] 0.09 | [7] 0.012 | [8] -0.028 | [9] -0.08 | [10] -0.019 | [11] -0.009 | [12] -0.003 | [13] -0.01 | [14] 0 | [15] -0.036 | [16] 0.08 | [17] -0.018 | [18] -0.001 | [19] -0.059 | [20] 0.014

CXorf56 (UniProt Q9H5V9)
inactive: [1] 0.051 | [2] -0.004 | [3] 0.029 | [4] 0.072 | [5] -0.01 | [6] 0.011 | [7] 0.015 | [8] -0.179 | [9] 0.038 | [10] 0 | [11] 0.01 | [12] 0.012 | [13] -0.009 | [14] 0.008 | [15] 0.022 | [16] 0.063 | [17] 0.032 | [18] -0.038 | [19] 0.006 | [20] -0.045

CUL1 (UniProt Q13616)
inactive: [1] 0.041 | [2] 0.038 | [3] 0.019 | [4] -0.024 | [5] 0.026 | [6] 0.006 | [7] -0.033 | [8] -0.048 | [9] 0.001 | [10] 0.008 | [11] 0.087 | [12] -0.032 | [13] 0.027 | [14] -0.032 | [15] -0.049 | [16] -0.029 | [17] -0.006 | [18] 0.037 | [19] 0.019 | [20] 0.021

DCTN4 (UniProt Q9UJW0)
inactive: [1] 0.022 | [2] 0.065 | [3] -0.012 | [4] -0.007 | [5] 0.004 | [6] -0.037 | [7] 0.014 | [8] -0.014 | [9] -0.005 | [10] 0.023 | [11] 0.002 | [12] -0.022 | [13] 0 | [14] 0.007 | [15] -0.046 | [16] -0.005 | [17] 0.007 | [18] -0.007 | [19] 0.058 | [20] -0.059

DCPS (UniProt Q96C86)
inactive: [1] 0.041 | [2] 0.021 | [3] 0.009 | [4] -0.002 | [5] -0.049 | [6] -0.007 | [7] -0.043 | [8] -0.045 | [9] -0.029 | [10] 0.006 | [11] -0.024 | [12] -0.015 | [13] -0.004 | [14] 0.006 | [15] -0.089 | [16] 0.023 | [17] 0.013 | [18] 0.035 | [19] -0.016 | [20] 0.003

DCTN3 (UniProt O75935)
inactive: [1] -0.029 | [2] -0.015 | [3] -0.084 | [4] 0.04 | [5] 0.098 | [6] -0.028 | [7] 0.049 | [8] 0.001 | [9] 0.053 | [10] -0.027 | [11] 0.053 | [12] -0.006 | [13] 0.008 | [14] -0.037 | [15] 0.032 | [16] 0.046 | [17] -0.004 | [18] -0.017 | [19] 0.012 | [20] 0.065

CUSTOS (UniProt Q96C57)
inactive: [1] -0.02 | [2] 0.013 | [3] -0.008 | [4] 0.011 | [5] -0.024 | [6] -0.016 | [7] 0.02 | [8] -0.013 | [9] -0.013 | [10] -0.025 | [11] -0.049 | [12] -0.031 | [13] -0.019 | [14] 0.015 | [15] -0.064 | [16] -0.003 | [17] -0.038 | [18] 0.022 | [19] 0.005 | [20] 0

Reprinted at random: 2 entries already listed, in no set order.
CUL1 (UniProt Q13616)
inactive: [1] 0.041 | [2] 0.038 | [3] 0.019 | [4] -0.024 | [5] 0.026 | [6] 0.006 | [7] -0.033 | [8] -0.048 | [9] 0.001 | [10] 0.008 | [11] 0.087 | [12] -0.032 | [13] 0.027 | [14] -0.032 | [15] -0.049 | [16] -0.029 | [17] -0.006 | [18] 0.037 | [19] 0.019 | [20] 0.021

CSTF2T (UniProt Q9H0L4)
inactive: [1] -0.005 | [2] 0.014 | [3] 0.058 | [4] -0.018 | [5] 0.011 | [6] 0.09 | [7] 0.012 | [8] -0.028 | [9] -0.08 | [10] -0.019 | [11] -0.009 | [12] -0.003 | [13] -0.01 | [14] 0 | [15] -0.036 | [16] 0.08 | [17] -0.018 | [18] -0.001 | [19] -0.059 | [20] 0.014

Remaining list, next part.

DAZAP1 (UniProt Q96EP5)
inactive: [1] 0.049 | [2] 0.061 | [3] 0.116 | [4] -0.048 | [5] 0.131 | [6] 0.093 | [7] 0.105 | [8] -0.118 | [9] -0.058 | [10] 0.012 | [11] 0.038 | [12] 0.053 | [13] -0.038 | [14] -0.011 | [15] -0.203 | [16] 0.081 | [17] -0.029 | [18] -0.011 | [19] 0.019 | [20] -0.107

CUL3 (UniProt Q13618)
inactive: [1] 0.013 | [2] -0.005 | [3] -0.043 | [4] -0.05 | [5] -0.011 | [6] -0.052 | [7] -0.025 | [8] -0.005 | [9] 0.007 | [10] 0.015 | [11] -0.001 | [12] -0.072 | [13] 0.03 | [14] -0.073 | [15] -0.006 | [16] 0.002 | [17] 0 | [18] 0.012 | [19] 0.008 | [20] -0.005

DCTD isoform 2 (UniProt P32321)
inactive: [1] 0.071 | [2] 0.075 | [3] 0.009 | [4] 0 | [5] -0.04 | [6] -0.065 | [7] 0.008 | [8] -0.036 | [9] -0.004 | [10] -0.006 | [11] 0.004 | [12] -0.005 | [13] 0.011 | [14] -0.063 | [15] 0 | [16] 0.011 | [17] -0.002 | [18] 0.051 | [19] -0.009 | [20] -0.031

CUTC (UniProt Q9NTM9)
inactive: [1] 0.017 | [2] -0.032 | [3] -0.038 | [4] -0.011 | [5] -0.011 | [6] 0.003 | [7] -0.03 | [8] -0.011 | [9] -0.005 | [10] 0.032 | [11] 0.037 | [12] -0.022 | [13] -0.043 | [14] 0.081 | [15] 0.025 | [16] 0.027 | [17] 0.035 | [18] 0.076 | [19] -0.071 | [20] 0.081

DCTN2 isoform 2 (UniProt Q13561)
inactive: [1] 0.008 | [2] -0.066 | [3] -0.032 | [4] 0.005 | [5] 0.056 | [6] -0.076 | [7] 0.016 | [8] 0.022 | [9] 0.034 | [10] -0.034 | [11] 0.025 | [12] -0.022 | [13] 0.087 | [14] -0.025 | [15] -0.028 | [16] 0.043 | [17] 0.012 | [18] -0.046 | [19] 0.016 | [20] 0.017

DCTN6 (UniProt O00399)
inactive: [1] 0.014 | [2] 0.035 | [3] 0.009 | [4] 0.02 | [5] -0.009 | [6] -0.104 | [7] 0.014 | [8] -0.059 | [9] 0.055 | [10] 0.014 | [11] -0.052 | [12] 0.019 | [13] 0.002 | [14] 0.025 | [15] -0.022 | [16] 0.102 | [17] -0.057 | [18] 0.043 | [19] 0.001 | [20] 0.002

D2HGDH (UniProt Q8N465)
inactive: [1] -0.042 | [2] 0.089 | [3] 0.112 | [4] -0.071 | [5] -0.019 | [6] 0.024 | [7] 0.036 | [8] 0.025 | [9] -0.065 | [10] -0.018 | [11] -0.1 | [12] -0.081 | [13] -0.069 | [14] 0.025 | [15] -0.1 | [16] 0.061 | [17] 0.045 | [18] 0.018 | [19] 0.009 | [20] -0.044

CYB5R4 (UniProt Q7L1T6)
inactive: [1] -0.001 | [2] 0.041 | [3] -0.001 | [4] 0.032 | [5] 0.008 | [6] -0.006 | [7] 0.034 | [8] 0.038 | [9] -0.02 | [10] -0.024 | [11] -0.017 | [12] -0.044 | [13] 0.015 | [14] -0.062 | [15] 0.029 | [16] 0.052 | [17] 0.013 | [18] 0.06 | [19] 0.02 | [20] 0.026

CT45A10 (UniProt P0DMU9)
inactive: [1] -0.028 | [2] 0 | [3] 0.157 | [4] 0.051 | [5] -0.099 | [6] 0.256 | [7] 0.147 | [8] 0.19 | [9] 0.075 | [10] 0.048 | [11] -0.112 | [12] 0.227 | [13] -0.091 | [14] 0.2 | [15] 0 | [16] -0.227 | [17] -0.038 | [18] 0.025 | [19] -0.313 | [20] -0.064
